# Results from one PubChem assay

Source: PubChem BioAssay AID1080 (Emory University Molecular Libraries Screening Center, 2008).

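A counter-screen in EP4-overexpressing cells measuring cyclic AMP with a time-resolved FRET kit under weak PGE2 stimulation. Compounds were tested at 20 µM final. A low (about EC15) PGE2 dose was present. Percent cAMP induction as a fraction of the 1 µM PGE2 response, averaged over three replicates; a higher value means more cAMP.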

Values are in %. Common to all entries: measured here: EP4 receptor counter-screen. Part of the compounds only, not a random draw; the main read-out is not listed here.

With Oc1c(Cl)cc(Cl)cc1Sc1cc(Cl)cc(Cl)c1O [percent of 1 uM PGE2 response; plus low (about EC15) PGE2 agonist] the assay gave cAMP induction -7.65%.
With CCOC(=O)c1cnc(SC)nc1Sc1ccccc1Cl [percent of 1 uM PGE2 response; plus low (about EC15) PGE2 agonist] the assay gave cAMP induction -4.897%.
With CC(C)Cc1nc(N2CCCCC2)c(C#N)c2c1CCC2 [percent of 1 uM PGE2 response; plus low (about EC15) PGE2 agonist] the assay gave cAMP induction 6.233%.
With COCCOC(=O)c1c(C)oc2ccc(OCc3ccccc3)cc12 [percent of 1 uM PGE2 response; plus low (about EC15) PGE2 agonist] the assay gave cAMP induction -0.3567%.
With CN(CC(=O)Nc1ccccc1-c1ccccc1)Cc1ccccc1Cl [percent of 1 uM PGE2 response; plus low (about EC15) PGE2 agonist] the assay gave cAMP induction -13.57%.
With COC(=O)C(C)Sc1ncnc2c1nnn2-c1ccc(F)cc1 (stereo not given) [percent of 1 uM PGE2 response; plus low (about EC15) PGE2 agonist] the assay gave cAMP induction -6.567%.
With Cc1nc2ccccc2nc1SCC(=O)N1CCC(C)CC1 [percent of 1 uM PGE2 response; plus low (about EC15) PGE2 agonist] the assay gave cAMP induction 68.86%.
With C/C=C(\C)c1nnc(NC(=O)OCC)s1 [percent of 1 uM PGE2 response; plus low (about EC15) PGE2 agonist] the assay gave cAMP induction 2.793%.
With N#CCSc1nc2sc3c(c2c(=O)n1C1CCCCC1)CCCC3 [percent of 1 uM PGE2 response; plus low (about EC15) PGE2 agonist] the assay gave cAMP induction 10.17%.
With Cc1cc([N+](=O)[O-])c(C)c(Br)c1C [percent of 1 uM PGE2 response; plus low (about EC15) PGE2 agonist] the assay gave cAMP induction 10.93%.
With CC1(c2ccccc2)CC(C)(C)N(C(=O)C2CCCO2)c2ccccc21 (stereo not given) [percent of 1 uM PGE2 response; plus low (about EC15) PGE2 agonist] the assay gave cAMP induction 1.547%.
With CC1=CCc2c(cc3oc(C)cc(=O)c3c2O)OC1 [percent of 1 uM PGE2 response; plus low (about EC15) PGE2 agonist] the assay gave cAMP induction 3.567%.
With CCOC(=O)c1oc2ccccc2c1NC(=O)c1ccccc1OC [percent of 1 uM PGE2 response; plus low (about EC15) PGE2 agonist] the assay gave cAMP induction 11.9%.
With Fc1ccc(-c2cc(-c3ccccc3)nc(-n3cccn3)n2)cc1 [percent of 1 uM PGE2 response; plus low (about EC15) PGE2 agonist] the assay gave cAMP induction -9.107%.

Some entries from above, unchanged:

| structure | setting | cAMP induction (%) |
|---|---|---|
| `Cc1nc2ccccc2nc1SCC(=O)N1CCC(C)CC1` | percent of 1 uM PGE2 response; plus low (about EC15) PGE2 agonist | 68.86 |
| `CCOC(=O)c1cnc(SC)nc1Sc1ccccc1Cl` | percent of 1 uM PGE2 response; plus low (about EC15) PGE2 agonist | -4.897 |